Laboratory results as given in patent US20190328788A1 (GENAGON THERAPEUTICS, published 2019).
These are yes or no findings as the source states them, for the method shown. Some entries that bind do so weakly or less than the wild type. One block for each molecule: values may come before it.

The chains behind the UniProt entries cited, without tags or fusion partners. Residues count along the entry.
UniProt P01137, residues 279-390: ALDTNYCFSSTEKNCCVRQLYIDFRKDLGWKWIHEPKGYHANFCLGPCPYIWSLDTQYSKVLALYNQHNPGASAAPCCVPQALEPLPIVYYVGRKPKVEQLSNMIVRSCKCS

Molecular target: T1, Cleft Lip and Palate Transmembrane protein 1 (CLPTM1), human (human) (UniProt O96005)
T1 sequence: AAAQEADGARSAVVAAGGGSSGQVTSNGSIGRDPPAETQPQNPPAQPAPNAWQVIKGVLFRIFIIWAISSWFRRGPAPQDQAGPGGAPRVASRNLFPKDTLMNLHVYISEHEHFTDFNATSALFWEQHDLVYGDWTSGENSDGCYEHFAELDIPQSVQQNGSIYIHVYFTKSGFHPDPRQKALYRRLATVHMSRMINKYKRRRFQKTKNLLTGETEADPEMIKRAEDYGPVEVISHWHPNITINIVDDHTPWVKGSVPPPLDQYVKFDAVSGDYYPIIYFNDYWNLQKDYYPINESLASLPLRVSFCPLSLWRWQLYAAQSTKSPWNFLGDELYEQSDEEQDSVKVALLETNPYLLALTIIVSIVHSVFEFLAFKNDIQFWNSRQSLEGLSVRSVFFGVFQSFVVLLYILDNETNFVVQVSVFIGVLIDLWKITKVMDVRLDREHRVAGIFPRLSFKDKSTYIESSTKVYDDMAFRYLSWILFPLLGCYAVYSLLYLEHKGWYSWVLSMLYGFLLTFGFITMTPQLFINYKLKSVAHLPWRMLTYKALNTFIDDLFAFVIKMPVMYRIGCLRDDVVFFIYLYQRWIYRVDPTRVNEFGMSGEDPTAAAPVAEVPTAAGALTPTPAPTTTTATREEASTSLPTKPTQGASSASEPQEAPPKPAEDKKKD
Experiment: restates the peptide ELISA of Example 1

binding: binds
Molecule: transforming growth factor-beta 1 (TGF-β1) (from UniProt P01137 279-390) (ligand)

binding: binds
B1: transforming growth factor-beta 3 (TGF-β3) (ligand, UniProt P10600 301-412, looked up)
chain: ALDTNYCFRNLEENCCVRPLYIDFRQDLGWKWVHEPKGYYANFCSGPCPYLRSADTTHSTVLGLYNTLNPEASASPCCVPQDLEPLTILYYVGRTPKVEQLSNMVVKSCKCS

binding: binds
B2: transforming growth factor-beta 2 (TGF-β2) (ligand, UniProt P61812 303-414, looked up)
chain: ALDAAYCFRNVQDNCCLRPLYIDFKRDLGWKWIHEPKGYNANFCAGACPYLWSSDTQHSRVLSLYNTINPEASASPCCVSQDLEPLTILYYIGKTPKIEQLSNMIVKSCKCS
